# Data as given in PubChem BioAssay AID1159584 (Peter MacCallum Cancer Centre, 2016).
# Screen: 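Genes that CDH1-null MCF10A cells selectively depend on to survive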 (primary screen)
# Cell system: human MCF10A breast epithelial cells, parental and CDH1-null
# Reagent: siRNA against human genes
# Measured: 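Cell viability by CellTiter-Glo ATP luminescence, each line scaled to the mean of mock wells across plates, then CDH1-null over parental ratio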
# Direction: CDH1-null / parental viability ratio: higher = CDH1-null cells survive relatively better than parental; CDH1-null viability vs mock: higher = more viable CDH1-null cells; parental viability vs mock: higher = more viable parental cells
# Shown is one part, drawn at random, of about 18,000 reagents. The record does not give: the amount of reagent, the time to read-out.
Gene,CDH1-null / parental viability ratio,CDH1-null viability vs mock (fraction of mock),parental viability vs mock (fraction of mock)
GPRC5B,1.54,0.83,0.54
HELLS,1.18,0.97,0.82
TFR2,1.32,0.74,0.56
OR7G1,1.08,1.04,0.96
EHHADH,0.96,0.94,0.98
KRTAP19-7,0.96,0.5,0.52
GNG3,0.96,0.75,0.78
NSDHL,0.56,0.32,0.57
KRR1,0.83,0.81,0.98
ZNF511,0.75,0.48,0.64
SPRED1,1.3,1.04,0.8
GSTA2,1.34,0.9,0.67
KCNJ6,1.17,1.25,1.07
EXTL1,0.95,0.84,0.88
HES1,0.89,0.8,0.9
PDE6C,0.87,0.9,1.04
CDX2,1.01,0.88,0.87
LINC01565,1.19,0.74,0.62
CCDC54,1.07,0.88,0.82
ACTR1B,1.09,0.98,0.9
MYB,1.14,1.12,0.98
OR6S1,1.05,1.12,1.07
EIF4A3,1.15,0.15,0.13
SLC7A9,1.01,1,0.99
CYBC1,1.19,0.68,0.57
LTV1,0.94,0.58,0.62
NID2,0.83,0.6,0.72
MOGAT3,1.02,0.84,0.82
C4orf46,0.95,0.54,0.57
RNPS1,0.81,0.26,0.32
ACBD5,1.46,0.67,0.46
FAR2,1.2,1,0.83
CCDC185,0.94,0.64,0.68
GADL1,1.03,0.97,0.94
CCDC81,0.77,0.68,0.88
CHMP4C,1.44,0.52,0.36
IFT52,0.97,0.83,0.86
NTS,0.92,0.9,0.98
IZUMO4,1.17,0.62,0.53
RYR1,1.27,1.02,0.8
HOXB5,0.86,0.62,0.72
TNFRSF10B,1.02,1,0.98
ZBTB46,0.84,0.71,0.85
TMEM209,0.97,0.92,0.95
GPS1,0.48,0.24,0.5
CYRIA,0.88,0.68,0.77
C22orf42,0.92,0.72,0.78
EFHB,0.94,0.81,0.86
ASXL1,0.92,0.73,0.79
DMAC2L,0.62,0.64,1.04
TAAR8,1.21,0.92,0.76
TPP1,1.14,0.84,0.74
POLR2G,1.14,0.5,0.44
CD5,0.71,0.55,0.77
JPH3,1.08,1.04,0.96
CCDC144BP,0.9,0.82,0.91
PTGFR,1.37,1.07,0.78
TRAF3IP2,1.17,0.75,0.64
RAB28,0.92,0.94,1.02
FOXL2,1,0.95,0.95
STAP1,0.95,0.81,0.85
TRO,1.24,0.67,0.54
TMUB1,0.83,0.4,0.48
UBE2D3,0.93,0.78,0.84
CDC25A,1.48,0.86,0.58
THAP2,1.06,0.95,0.9
TNNC2,0.88,0.77,0.88
UHMK1,1.07,0.9,0.84

Taken from above:
Under “CDH1-null viability vs mock (fraction of mock)”, CYRIA shows 0.68
Under “CDH1-null / parental viability ratio”, PDE6C shows 0.87
TRAF3IP2, CDH1-null / parental viability ratio = 1.17
TNNC2, parental viability vs mock (fraction of mock) = 0.88
